Patent US12389910B2, “Beta-lactams and their use as herbicides” (BASF SE, priority 2020, dated 2025)
Some results were stated once for a whole list of compounds, not compound by compound. Some ranges recur; such a range may be that of the whole group of compounds.

Key:
ALOMY = experiment: greenhouse herbicidal activity, post-emergence treatment; type: in vivo, Alopercurus myosuroides; conditions: post-emergence method, scale 0 to 100
Text: (§1) The culture containers used were plastic flowerpots containing loamy sand with approximately 3.0% of humus as the substrate. The seeds of the test plants were sown separately for each species.
(§2) For the pre-emergence treatment, the active ingredients, which had been suspended or emulsified in water, were applied directly after sowing by means of finely distributing nozzles. The containers were irrigated gently to promote germination and growth and subsequently covered with transparent plastic hoods until the test plants had rooted. This cover caused uniform germination of the test plants, unless this had been impaired by the active ingredients. For the post-emergence treatment, the test plants were first grown to a height of 3 to 15 cm, depending on the plant habit, and only then treated with the active ingredients which had been suspended or emulsified in water. For this purpose, the test plants were either sown directly and grown in the same containers, or they were first grown separately as seedlings and transplanted into the test containers a few days prior to treatment.
(§3) Depending on the species, the test plants were kept at 10-25° C. or 20-35° C., respectively. The test period extended over 2 to 4 weeks. During this time, the test plants were tended, and their response to the individual treatments was evaluated.
(§4) Evaluation was carried out using a scale from 0 to 100. 100 means no emergence of the test plants, or complete destruction of at least the aerial moieties, and 0 means no damage, or normal course of growth. A good herbicidal activity is given at values of 80 to 90 and a very good herbicidal activity is given at values of 90 to 100.
(§5) The test plants used in the greenhouse experiments were of the following species: Bayer code Scientific name

APESV = experiment: greenhouse herbicidal activity, pre-emergence treatment; type: in vivo, Apera spica-venti; conditions: pre-emergence method, scale 0 to 100
Text: as §1, §2, §3, §4, §5

AVEFA = experiment: greenhouse herbicidal activity, post-emergence treatment; type: in vivo, Avena fatua; conditions: post-emergence method, scale 0 to 100
Text: as §1, §2, §3, §4, §5

ECHCG [1] = experiment: as above; type: in vivo, Echinocloa crus-galli; conditions: post-emergence method, application rate 0,500 kg/ha; scale 0 to 100
Text: as §1, §2, §3, §4, §5

AMARE = experiment: as above; type: in vivo, Amaranthus retroflexus; conditions: post-emergence method, scale 0 to 100
Text: as §1, §2, §3, §4, §5

SETVI = experiment: as above; type: in vivo, Setaria viridis; conditions: post-emergence method, scale 0 to 100
Text: as §1, §2, §3, §4, §5

ECHCG [2] = experiment: greenhouse herbicidal activity, pre-emergence treatment; type: in vivo, Echinocloa crus-galli; conditions: pre-emergence method, application rate 0,500 kg/ha; scale 0 to 100
Text: as §1, §2, §3, §4, §5

SMILES | herbicidal activity against ALOMY (ALOMY; application rate 0,500 kg/ha) | herbicidal activity against APESV (APESV; application rate 0,500 kg/ha) | herbicidal activity against AVEFA (AVEFA; application rate 0,500 kg/ha) | herbicidal activity against ECHCG (ECHCG [1]) | herbicidal activity against SETVI (SETVI; application rate 0,500 kg/ha) | herbicidal activity against AMARE (AMARE; application rate 0,500 kg/ha) | herbicidal activity against ECHCG (ECHCG [2]) | further results
COC(=O)[C@H]1C=C[C@@H](NC(=O)C2(C)CN(c3cc(Cl)cc(Cl)c3)C2=O)C1 (relative stereo) [compound 120] | very good (a very good herbicidal activity is given at values of 90 to 100) | very good (a very good herbicidal activity is given at values of 90 to 100) | good (A good herbicidal activity is given at values of 80 to 90) | good (A good herbicidal activity is given at values of 80 to 90) | – | – | – | –
COC(=O)[C@@H]1C=C[C@H](NC(=O)C2(C)CN(c3cc(C)cc(F)c3)C2=O)C1 (relative stereo) [compound 141] | – | – | – | – | – | – | – | herbicidal activity against AMARE (AMARE; application rate 0,250 kg/ha): very good (a very good herbicidal activity is given at values of 90 to 100); herbicidal activity against APESV (APESV; application rate 0,250 kg/ha): very good (a very good herbicidal activity is given at values of 90 to 100); herbicidal activity against AVEFA (AVEFA; application rate 0,250 kg/ha): very good (a very good herbicidal activity is given at values of 90 to 100)
COC(=O)CC(C)NC(=O)C1(C)CN(c2cc(Cl)cc(Cl)c2)C1=O (centres unmarked) [compound 11] | – | – | – | – | – | – | – | herbicidal activity against AMARE (AMARE; application rate 1,000 kg/ha): very good (a very good herbicidal activity is given at values of 90 to 100); herbicidal activity against SETVI (SETVI; application rate 1,000 kg/ha): very good (a very good herbicidal activity is given at values of 90 to 100)
CCOC(=O)CC(C)NC(=O)C1(OC)CN(c2cc(Cl)cc(Cl)c2)C1=O (centres unmarked) [compound 13] | very good (a very good herbicidal activity is given at values of 90 to 100) | good (A good herbicidal activity is given at values of 80 to 90) | good (A good herbicidal activity is given at values of 80 to 90) | – | good (A good herbicidal activity is given at values of 80 to 90) | – | – | –
COC(=O)CC(C)NC(=O)C1(C)CN(c2cc(F)cc(F)c2)C1=O (centres unmarked) [compound 14] | very good (a very good herbicidal activity is given at values of 90 to 100) | very good (a very good herbicidal activity is given at values of 90 to 100) | – | very good (a very good herbicidal activity is given at values of 90 to 100) | – | very good (a very good herbicidal activity is given at values of 90 to 100) | very good (a very good herbicidal activity is given at values of 90 to 100) | –
COC(=O)C1CC(NC(=O)C2(C)CN(c3cc(F)cc(F)c3)C2=O)C1 (centres unmarked) [compound 17] | very good (a very good herbicidal activity is given at values of 90 to 100) | very good (a very good herbicidal activity is given at values of 90 to 100) | – | good (A good herbicidal activity is given at values of 80 to 90) | good (A good herbicidal activity is given at values of 80 to 90) | – | very good (a very good herbicidal activity is given at values of 90 to 100) | –
COC(=O)C1CCC(NC(=O)C2(C)CN(c3cc(F)cc(F)c3)C2=O)C1 (centres unmarked) [compound 18] | very good (a very good herbicidal activity is given at values of 90 to 100) | very good (a very good herbicidal activity is given at values of 90 to 100) | – | – | good (A good herbicidal activity is given at values of 80 to 90) | good (A good herbicidal activity is given at values of 80 to 90) | very good (a very good herbicidal activity is given at values of 90 to 100) | –
COC(=O)[C@@H]1C=C[C@H](NC(=O)C2(C)CN(c3cc(Cl)cc(Cl)c3)C2=O)C1 (some centres unmarked) [compound 19] | – | very good (a very good herbicidal activity is given at values of 90 to 100) | – | very good (a very good herbicidal activity is given at values of 90 to 100) | very good (a very good herbicidal activity is given at values of 90 to 100) | very good (a very good herbicidal activity is given at values of 90 to 100) | very good (a very good herbicidal activity is given at values of 90 to 100) | –
COC(=O)CCCNC(=O)C1(C)CN(c2cc(F)cc(F)c2)C1=O (centres unmarked) [compound 110] | good (A good herbicidal activity is given at values of 80 to 90) | – | – | – | good (A good herbicidal activity is given at values of 80 to 90) | good (A good herbicidal activity is given at values of 80 to 90) | – | –
COC(=O)CCCNC(=O)C1(C)CN(c2cc(Cl)cc(Cl)c2)C1=O (centres unmarked) [compound 111] | good (A good herbicidal activity is given at values of 80 to 90) | good (A good herbicidal activity is given at values of 80 to 90) | good (A good herbicidal activity is given at values of 80 to 90) | – | – | very good (a very good herbicidal activity is given at values of 90 to 100) | – | –
COC(=O)C1CC(NC(=O)C2(OC)CN(c3cc(F)cc(F)c3)C2=O)C1 (centres unmarked) [compound 113] | good (A good herbicidal activity is given at values of 80 to 90) | very good (a very good herbicidal activity is given at values of 90 to 100) | good (A good herbicidal activity is given at values of 80 to 90) | – | – | – | – | –
COC(=O)CC(C)NC(=O)C1(C)CN(c2cc(Cl)cc(Cl)c2)C1=O (centres unmarked) [compound 114] | very good (a very good herbicidal activity is given at values of 90 to 100) | very good (a very good herbicidal activity is given at values of 90 to 100) | good (A good herbicidal activity is given at values of 80 to 90) | – | – | – | – | –
COC(=O)CCCCNC(=O)C1(C)CN(c2cc(F)cc(F)c2)C1=O (centres unmarked) [compound 115] | good (A good herbicidal activity is given at values of 80 to 90) | good (A good herbicidal activity is given at values of 80 to 90) | very good (a very good herbicidal activity is given at values of 90 to 100) | – | – | – | – | –
COC(=O)CCC(C)NC(=O)C1(C)CN(c2cc(F)cc(F)c2)C1=O (centres unmarked) [compound 117] | very good (a very good herbicidal activity is given at values of 90 to 100) | very good (a very good herbicidal activity is given at values of 90 to 100) | very good (a very good herbicidal activity is given at values of 90 to 100) | – | – | good (A good herbicidal activity is given at values of 80 to 90) | very good (a very good herbicidal activity is given at values of 90 to 100) | –
CCC1(C(=O)NC(C)CC(=O)OC)CN(c2cc(Cl)cc(Cl)c2)C1=O (centres unmarked) [compound 118] | very good (a very good herbicidal activity is given at values of 90 to 100) | very good (a very good herbicidal activity is given at values of 90 to 100) | – | very good (a very good herbicidal activity is given at values of 90 to 100) | very good (a very good herbicidal activity is given at values of 90 to 100) | – | very good (a very good herbicidal activity is given at values of 90 to 100) | –
COC(=O)CC(C)NC(=O)C1(C2CC2)CN(c2cc(Cl)cc(Cl)c2)C1=O (centres unmarked) [compound 122] | good (A good herbicidal activity is given at values of 80 to 90) | very good (a very good herbicidal activity is given at values of 90 to 100) | – | very good (a very good herbicidal activity is given at values of 90 to 100) | very good (a very good herbicidal activity is given at values of 90 to 100) | – | very good (a very good herbicidal activity is given at values of 90 to 100) | –
COC(=O)CC(C)NC(=O)C1CN(c2cc(Cl)cc(Cl)c2)C1=O (centres unmarked) [compound 131] | – | – | – | – | – | – | – | herbicidal activity against AMARE (AMARE; application rate 1,000 kg/ha): very good (a very good herbicidal activity is given at values of 90 to 100); herbicidal activity against SETVI (SETVI; application rate 1,000 kg/ha): very good (a very good herbicidal activity is given at values of 90 to 100)
COC(=O)C1C=CC(NC(=O)C2(C)CN(c3ccc(F)c(C#N)c3)C2=O)C1 (centres unmarked) [compound 147] | – | – | – | – | – | – | – | herbicidal activity against ALOMY (ALOMY; application rate 0,250 kg/ha): very good (a very good herbicidal activity is given at values of 90 to 100); herbicidal activity against SETVI (SETVI; application rate 0,250 kg/ha): very good (a very good herbicidal activity is given at values of 90 to 100)
